# Results as given in the supplement of paper PMC8728848.
# The list shows a part of the results.
# Experiments:
# Experiment in all cases: glycan array binding signal (z-score within array); higher = stronger binding
# Conditions in all cases: glycan notation: IUPAC condensed, linker removed
# [1] = biological target: Gal(b1-4)GlcNAc(b1-2)Man(a1-6)[Man(a1-3)]Man(b1-4)GlcNAc(b1-4)GlcNAc
# In short: (§1)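 The binding signal is a Z-score computed within each array. Data were drawn from 3228 arrays in the Consortium for Functional Glycomics database, restricted to those with a known protein sequence. Scores were averaged over arrays of the same protein sequence at different concentrations or buffers, and over linkers, and negative values can be taken as non-binding.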
# [2] = biological target: Gal(b1-4)GlcNAc(b1-2)[Gal(b1-4)GlcNAc(b1-4)]Man(a1-3)[Gal(b1-4)GlcNAc(b1-2)Man(a1-6)]Man(b1-4)GlcNAc(b1-4)GlcNAc
# In short: as §1
# [3] = biological target: Gal(b1-4)GlcNAc(b1-2)[Gal(b1-4)GlcNAc(b1-4)]Man(a1-3)[Gal(b1-4)GlcNAc(b1-2)[Gal(b1-4)GlcNAc(b1-6)]Man(a1-6)]Man(b1-4)GlcNAc(b1-4)GlcNAc
# In short: as §1
# [4] = biological target: Gal(b1-4)GlcNAc(b1-2)[Gal(b1-4)GlcNAc(b1-4)]Man(a1-3)[GlcNAc(b1-4)][Gal(b1-4)GlcNAc(b1-2)Man(a1-6)]Man(b1-4)GlcNAc(b1-4)GlcNAc
# In short: as §1
# [5] = biological target: Gal(b1-4)GlcNAc(b1-2)[Gal(b1-4)GlcNAc(b1-4)]Man(a1-3)[GlcNAc(b1-4)][Gal(b1-4)GlcNAc(b1-2)[Gal(b1-4)GlcNAc(b1-6)]Man(a1-6)]Man(b1-4)GlcNAc(b1-4)GlcNAc
# In short: as §1
# [6] = biological target: Gal(b1-4)GlcNAc(b1-2)[Gal(b1-4)GlcNAc(b1-6)]Man(a1-6)[Gal(b1-4)GlcNAc(b1-2)Man(a1-3)]Man(b1-4)GlcNAc(b1-4)GlcNAc
# In short: as §1
# [7] = biological target: Gal(b1-4)GlcNAc(b1-2)[Gal(b1-4)GlcNAc(b1-6)]Man(a1-6)[Gal(b1-4)GlcNAc(b1-2)Man(a1-3)]Man(b1-4)GlcNAc(b1-4)[Fuc(a1-6)]GlcNAc
# In short: as §1
# [8] = biological target: Gal(b1-4)GlcNAc(b1-2)[Gal(b1-4)GlcNAc(b1-6)]Man(a1-6)[GlcNAc(b1-4)][Gal(b1-4)GlcNAc(b1-2)Man(a1-3)]Man(b1-4)GlcNAc(b1-4)GlcNAc
# In short: as §1
# [9] = biological target: Gal(b1-4)GlcNAc(b1-2)[Gal(b1-4)GlcNAc(b1-6)]Man(a1-6)[GlcNAc(b1-4)][Gal(b1-4)GlcNAc(b1-2)[Gal(b1-4)GlcNAc(b1-4)]Man(a1-3)]Man(b1-4)GlcNAc(b1-4)[Fuc(a1-6)]GlcNAc
# In short: as §1
# [10] = biological target: Gal(b1-4)GlcNAc(b1-3)Gal(b1-3)GalNAc
# In short: as §1
# [11] = biological target: Gal(b1-4)GlcNAc(b1-3)Gal(b1-3)GlcNAc
# In short: as §1
# [12] = biological target: Gal(b1-4)GlcNAc(b1-3)Gal(b1-4)Glc
# In short: as §1
# [13] = biological target: Gal(b1-4)GlcNAc(b1-3)Gal(b1-4)GlcNAc
# In short: as §1
# [14] = biological target: Gal(b1-4)GlcNAc(b1-3)Gal(b1-4)GlcNAc(b1-2)Man(a1-3)[Gal(b1-4)GlcNAc(b1-3)Gal(b1-4)GlcNAc(b1-2)Man(a1-6)]Man(b1-4)GlcNAc(b1-4)GlcNAc
# In short: as §1
# [15] = biological target: Gal(b1-4)GlcNAc(b1-3)Gal(b1-4)GlcNAc(b1-2)Man(a1-3)[Gal(b1-4)GlcNAc(b1-3)Gal(b1-4)GlcNAc(b1-2)Man(a1-6)]Man(b1-4)GlcNAc(b1-4)[Fuc(a1-6)]GlcNAc
# In short: as §1
# [16] = biological target: Gal(b1-4)GlcNAc(b1-3)Gal(b1-4)GlcNAc(b1-2)[Gal(b1-4)GlcNAc(b1-3)Gal(b1-4)GlcNAc(b1-6)]Man(a1-6)[Gal(b1-4)GlcNAc(b1-3)Gal(b1-4)GlcNAc(b1-2)Man(a1-3)]Man(b1-4)GlcNAc(b1-4)GlcNAc
# In short: as §1
# [17] = biological target: Gal(b1-4)GlcNAc(b1-3)Gal(b1-4)GlcNAc(b1-2)[Gal(b1-4)GlcNAc(b1-3)Gal(b1-4)GlcNAc(b1-6)]Man(a1-6)[Gal(b1-4)GlcNAc(b1-3)Gal(b1-4)GlcNAc(b1-2)Man(a1-3)]Man(b1-4)GlcNAc(b1-4)[Fuc(a1-6)]GlcNAc
# In short: as §1
# [18] = biological target: Gal(b1-4)GlcNAc(b1-3)Gal(b1-4)GlcNAc(b1-3)Gal(b1-4)GlcNAc
# In short: as §1
# [19] = biological target: Gal(b1-4)GlcNAc(b1-3)Gal(b1-4)GlcNAc(b1-3)Gal(b1-4)GlcNAc(b1-2)Man(a1-3)[Gal(b1-4)GlcNAc(b1-3)Gal(b1-4)GlcNAc(b1-3)Gal(b1-4)GlcNAc(b1-2)Man(a1-6)]Man(b1-4)GlcNAc(b1-4)GlcNAc
# In short: as §1
# [20] = biological target: Gal(b1-4)GlcNAc(b1-3)Gal(b1-4)GlcNAc(b1-3)Gal(b1-4)GlcNAc(b1-2)Man(a1-3)[Gal(b1-4)GlcNAc(b1-3)Gal(b1-4)GlcNAc(b1-3)Gal(b1-4)GlcNAc(b1-2)Man(a1-6)]Man(b1-4)GlcNAc(b1-4)[Fuc(a1-6)]GlcNAc
# In short: as §1
# [21] = biological target: Gal(b1-4)GlcNAc(b1-3)Gal(b1-4)GlcNAc(b1-3)Gal(b1-4)GlcNAc(b1-2)[Gal(b1-4)GlcNAc(b1-3)Gal(b1-4)GlcNAc(b1-3)Gal(b1-4)GlcNAc(b1-6)]Man(a1-6)[Gal(b1-4)GlcNAc(b1-3)Gal(b1-4)GlcNAc(b1-3)Gal(b1-4)GlcNAc(b1-2)Man(a1-3)]Man(b1-4)GlcNAc(b1-4)[Fuc(a1-6)]GlcNAc
# In short: as §1
# [22] = biological target: Gal(b1-4)GlcNAc(b1-3)Gal(b1-4)GlcNAc(b1-3)Gal(b1-4)GlcNAc(b1-3)Gal(b1-4)GlcNAc(b1-2)Man(a1-3)[Gal(b1-4)GlcNAc(b1-3)Gal(b1-4)GlcNAc(b1-3)Gal(b1-4)GlcNAc(b1-3)Gal(b1-4)GlcNAc(b1-2)Man(a1-6)]Man(b1-4)GlcNAc(b1-4)GlcNAc
# In short: as §1
binder,measurement,setting,value
Lb MiSSP8 (Laccaria bicolor) (protein) MYFHTLFACATLMLITTAHASPTVINSLDSRKADLNGDVEARHAADWRRDSDWRRDSDWRRDSDWRRDSD,glycan array binding signal (z-score),[1],-0.737
same,glycan array binding signal (z-score),[2],-0.102
same,glycan array binding signal (z-score),[3],-0.771
same,glycan array binding signal (z-score),[4],-0.274
same,glycan array binding signal (z-score),[5],-0.813
same,glycan array binding signal (z-score),[6],-0.392
same,glycan array binding signal (z-score),[7],0.243
same,glycan array binding signal (z-score),[8],-0.571
same,glycan array binding signal (z-score),[9],0.036
same,glycan array binding signal (z-score),[10],-1.19
same,glycan array binding signal (z-score),[11],0.292
same,glycan array binding signal (z-score),[12],2.29
same,glycan array binding signal (z-score),[13],-1.01
same,glycan array binding signal (z-score),[14],1.96
same,glycan array binding signal (z-score),[15],0.133
same,glycan array binding signal (z-score),[16],2.86
same,glycan array binding signal (z-score),[17],0.637
same,glycan array binding signal (z-score),[18],-0.82
same,glycan array binding signal (z-score),[19],1.53
same,glycan array binding signal (z-score),[20],0.589
same,glycan array binding signal (z-score),[21],1.1
same,glycan array binding signal (z-score),[22],0.602

# Exported as tab-separated lines: entries from further up
binder	measurement	setting	value
Lb MiSSP8 (Laccaria bicolor) (protein) MYFHTLFACATLMLITTAHASPTVINSLDSRKADLNGDVEARHAADWRRDSDWRRDSDWRRDSDWRRDSD	glycan array binding signal (z-score)	[9]	0.036
same	glycan array binding signal (z-score)	[12]	2.29
